In PMC13002332:
These are yes or no findings as the source states them, for the method shown. Binding seen in cells or lysates may run through a third protein. Here binding means that the protein was enriched with, or labelled near, the bait; the list need not be complete. Where a sequence is shown, tags or fusion partners need not be part of it.

Amino acid sequences for entries named in this document (tags omitted).
UniProt Q569L8: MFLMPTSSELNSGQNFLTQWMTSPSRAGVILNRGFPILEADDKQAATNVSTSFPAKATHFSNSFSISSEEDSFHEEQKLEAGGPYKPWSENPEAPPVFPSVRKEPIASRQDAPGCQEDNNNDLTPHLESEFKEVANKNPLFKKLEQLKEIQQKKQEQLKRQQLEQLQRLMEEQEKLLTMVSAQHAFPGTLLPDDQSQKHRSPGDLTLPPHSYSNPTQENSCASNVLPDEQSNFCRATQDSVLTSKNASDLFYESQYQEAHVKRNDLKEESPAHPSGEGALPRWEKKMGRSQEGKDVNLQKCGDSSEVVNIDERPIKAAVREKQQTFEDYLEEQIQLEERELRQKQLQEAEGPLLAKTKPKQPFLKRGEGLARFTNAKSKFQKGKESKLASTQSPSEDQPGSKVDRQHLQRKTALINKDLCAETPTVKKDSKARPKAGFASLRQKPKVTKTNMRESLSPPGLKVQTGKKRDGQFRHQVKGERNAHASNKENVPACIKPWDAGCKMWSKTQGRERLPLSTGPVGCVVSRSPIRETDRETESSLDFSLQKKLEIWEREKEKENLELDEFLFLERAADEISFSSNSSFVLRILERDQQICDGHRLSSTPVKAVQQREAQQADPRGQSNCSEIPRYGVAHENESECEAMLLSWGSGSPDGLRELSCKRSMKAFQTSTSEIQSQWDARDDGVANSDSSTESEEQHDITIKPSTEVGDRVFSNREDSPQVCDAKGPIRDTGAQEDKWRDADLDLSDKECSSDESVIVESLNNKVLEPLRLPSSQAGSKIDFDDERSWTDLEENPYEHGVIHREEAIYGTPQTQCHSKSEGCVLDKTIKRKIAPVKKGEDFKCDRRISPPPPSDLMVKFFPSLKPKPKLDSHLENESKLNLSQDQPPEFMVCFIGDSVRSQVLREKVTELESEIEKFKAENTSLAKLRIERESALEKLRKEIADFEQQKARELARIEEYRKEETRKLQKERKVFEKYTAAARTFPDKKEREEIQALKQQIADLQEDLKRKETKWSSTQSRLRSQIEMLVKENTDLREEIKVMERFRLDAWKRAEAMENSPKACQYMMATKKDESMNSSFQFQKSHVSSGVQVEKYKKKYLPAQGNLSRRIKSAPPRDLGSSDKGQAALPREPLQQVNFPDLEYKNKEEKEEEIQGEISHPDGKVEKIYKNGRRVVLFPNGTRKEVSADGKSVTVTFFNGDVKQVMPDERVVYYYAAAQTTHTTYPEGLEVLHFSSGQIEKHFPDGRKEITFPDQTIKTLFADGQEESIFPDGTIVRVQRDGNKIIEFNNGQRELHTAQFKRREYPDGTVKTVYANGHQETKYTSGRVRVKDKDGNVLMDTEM
UniProt Q8C4X2: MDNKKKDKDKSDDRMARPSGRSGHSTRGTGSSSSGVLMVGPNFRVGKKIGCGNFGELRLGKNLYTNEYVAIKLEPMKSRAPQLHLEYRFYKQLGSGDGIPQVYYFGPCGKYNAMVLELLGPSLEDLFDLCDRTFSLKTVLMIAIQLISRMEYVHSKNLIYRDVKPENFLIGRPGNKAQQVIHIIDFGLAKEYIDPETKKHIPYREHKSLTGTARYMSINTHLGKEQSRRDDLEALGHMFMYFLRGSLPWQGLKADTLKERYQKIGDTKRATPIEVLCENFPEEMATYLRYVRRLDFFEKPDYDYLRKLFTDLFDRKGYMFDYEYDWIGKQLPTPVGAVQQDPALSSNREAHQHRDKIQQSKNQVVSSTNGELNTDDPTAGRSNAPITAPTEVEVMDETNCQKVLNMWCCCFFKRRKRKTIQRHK
UniProt Q80VP1: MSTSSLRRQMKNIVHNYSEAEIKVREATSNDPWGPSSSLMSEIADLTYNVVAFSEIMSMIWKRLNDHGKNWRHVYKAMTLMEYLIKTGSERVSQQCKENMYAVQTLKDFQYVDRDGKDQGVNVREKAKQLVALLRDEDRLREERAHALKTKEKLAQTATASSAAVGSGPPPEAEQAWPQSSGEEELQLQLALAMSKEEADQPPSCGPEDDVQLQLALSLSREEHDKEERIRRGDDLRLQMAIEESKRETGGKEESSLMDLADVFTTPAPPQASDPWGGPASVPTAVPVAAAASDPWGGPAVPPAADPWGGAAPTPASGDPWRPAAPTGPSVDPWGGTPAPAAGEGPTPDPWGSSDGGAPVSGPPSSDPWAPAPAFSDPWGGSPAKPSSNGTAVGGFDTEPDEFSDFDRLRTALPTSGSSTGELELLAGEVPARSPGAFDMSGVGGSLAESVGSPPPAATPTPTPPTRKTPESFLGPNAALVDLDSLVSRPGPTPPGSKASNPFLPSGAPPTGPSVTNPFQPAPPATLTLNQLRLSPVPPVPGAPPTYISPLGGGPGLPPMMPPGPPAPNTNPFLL

Target: T1, Cilia- and flagella-associated protein 77 (CFAP77), endogenous in mouse testis (mouse (endogenous in testis))
T1 sequence: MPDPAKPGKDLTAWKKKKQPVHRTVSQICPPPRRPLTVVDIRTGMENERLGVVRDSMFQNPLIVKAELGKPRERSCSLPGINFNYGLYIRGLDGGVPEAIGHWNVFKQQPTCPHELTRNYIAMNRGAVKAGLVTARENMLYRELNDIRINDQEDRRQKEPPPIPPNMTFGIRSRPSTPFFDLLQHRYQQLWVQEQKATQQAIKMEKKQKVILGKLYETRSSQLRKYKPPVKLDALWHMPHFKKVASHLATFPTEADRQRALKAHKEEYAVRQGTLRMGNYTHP
Experiment: affinity purification with mass spectrometry; immunoprecipitation with an anti-CFAP77 antibody on Dynabeads from mouse testis lysates, LC-MS/MS; Cfap77 KO testes with the same beads and antibody as negative control

binding, binds:
CENPJ, endogenous in mouse testis (from UniProt Q569L8 1-1344)
CSNK1G3, endogenous in mouse testis (from UniProt Q8C4X2 1-424)
EPN1, endogenous in mouse testis (from UniProt Q80VP1 1-575)
